The list shows a part of the results. Residues, ends and D or L forms follow the SMILES beside them. *: point of attachment. Cbz = O=C(OCc1ccccc1)*
How the values were obtained:
Assay in all cases: log2 fold change, soluble protein after heating vs DMSO (PISA); higher = thermal stabilisation; K562 cells, 10 uM, 30 min; active = over 0.2 and 3.5 SD of the protein, either way, in both replicates (recomputed)
IRAK-1-4 Inhibitor I = compound: C1COCCN1CCN2C3=CC=CC=C3N=C2NC(=O)C4=CC(=CC=C4)[N+](=O)[O-] [IRAK-1-4 Inhibitor I]
In short: (§1)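 Quantification of soluble protein used TMTpro 16plex LC-MS/MS, with channel sums equalised. Samples were the supernatant after 21,000xg for 90 min of pooled aliquots from K562 cells (2×10^6 cells/mL) treated with 10 μM compound for 30 min, heated for 3 min over 48°C-58°C, and extracted in PBS with 0.5% NP-40 at 4°C. Values, from duplicates, describe thermal stability against control samples on a log2 fold-change scale.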

Amino acid sequences for entries named in this document (tags omitted). A change or cut given only in a name is not applied to a line headed by its entry.
UniProt Q13151: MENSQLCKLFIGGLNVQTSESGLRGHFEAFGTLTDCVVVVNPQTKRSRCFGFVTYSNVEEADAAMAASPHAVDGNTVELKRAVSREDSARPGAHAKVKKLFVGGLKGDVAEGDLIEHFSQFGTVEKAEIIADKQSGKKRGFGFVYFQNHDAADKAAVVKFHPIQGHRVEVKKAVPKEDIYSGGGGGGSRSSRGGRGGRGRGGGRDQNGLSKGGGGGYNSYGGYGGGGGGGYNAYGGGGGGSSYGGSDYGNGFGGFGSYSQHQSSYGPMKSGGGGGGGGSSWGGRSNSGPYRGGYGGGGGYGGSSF
UniProt Q9Y241: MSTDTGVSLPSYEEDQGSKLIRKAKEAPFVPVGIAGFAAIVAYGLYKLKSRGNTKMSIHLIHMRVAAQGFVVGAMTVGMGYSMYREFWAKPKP
UniProt P14866: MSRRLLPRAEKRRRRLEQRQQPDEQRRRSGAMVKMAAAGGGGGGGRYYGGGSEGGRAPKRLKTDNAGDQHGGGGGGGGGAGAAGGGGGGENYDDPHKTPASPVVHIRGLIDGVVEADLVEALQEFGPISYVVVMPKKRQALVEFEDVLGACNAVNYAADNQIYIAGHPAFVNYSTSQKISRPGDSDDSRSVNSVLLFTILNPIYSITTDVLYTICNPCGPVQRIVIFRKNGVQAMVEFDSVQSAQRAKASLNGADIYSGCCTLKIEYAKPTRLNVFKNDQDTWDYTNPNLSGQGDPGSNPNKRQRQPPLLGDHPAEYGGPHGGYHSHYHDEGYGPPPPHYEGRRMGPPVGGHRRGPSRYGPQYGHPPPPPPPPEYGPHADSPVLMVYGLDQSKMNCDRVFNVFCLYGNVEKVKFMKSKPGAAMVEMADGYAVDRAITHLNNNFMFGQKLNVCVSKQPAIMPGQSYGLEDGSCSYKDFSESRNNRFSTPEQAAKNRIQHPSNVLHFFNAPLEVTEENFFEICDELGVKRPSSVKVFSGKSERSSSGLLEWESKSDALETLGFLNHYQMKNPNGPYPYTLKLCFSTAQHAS
UniProt Q9BUP3: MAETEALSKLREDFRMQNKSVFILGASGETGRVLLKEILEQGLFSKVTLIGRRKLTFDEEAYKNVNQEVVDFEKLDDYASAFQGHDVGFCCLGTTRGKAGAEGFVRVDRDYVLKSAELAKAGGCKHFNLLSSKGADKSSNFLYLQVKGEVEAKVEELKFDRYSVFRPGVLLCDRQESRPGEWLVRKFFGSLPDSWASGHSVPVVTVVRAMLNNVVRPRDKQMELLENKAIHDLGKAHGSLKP
UniProt O60725, whole entry, looked up: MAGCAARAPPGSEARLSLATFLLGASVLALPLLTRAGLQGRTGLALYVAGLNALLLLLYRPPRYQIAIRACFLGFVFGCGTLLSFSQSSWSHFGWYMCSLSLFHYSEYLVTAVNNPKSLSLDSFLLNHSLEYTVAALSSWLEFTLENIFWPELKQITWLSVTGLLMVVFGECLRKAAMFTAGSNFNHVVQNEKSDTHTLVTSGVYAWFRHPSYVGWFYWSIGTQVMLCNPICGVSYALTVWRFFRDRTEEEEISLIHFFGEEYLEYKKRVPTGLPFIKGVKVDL
UniProt Q58FF7, whole entry, looked up: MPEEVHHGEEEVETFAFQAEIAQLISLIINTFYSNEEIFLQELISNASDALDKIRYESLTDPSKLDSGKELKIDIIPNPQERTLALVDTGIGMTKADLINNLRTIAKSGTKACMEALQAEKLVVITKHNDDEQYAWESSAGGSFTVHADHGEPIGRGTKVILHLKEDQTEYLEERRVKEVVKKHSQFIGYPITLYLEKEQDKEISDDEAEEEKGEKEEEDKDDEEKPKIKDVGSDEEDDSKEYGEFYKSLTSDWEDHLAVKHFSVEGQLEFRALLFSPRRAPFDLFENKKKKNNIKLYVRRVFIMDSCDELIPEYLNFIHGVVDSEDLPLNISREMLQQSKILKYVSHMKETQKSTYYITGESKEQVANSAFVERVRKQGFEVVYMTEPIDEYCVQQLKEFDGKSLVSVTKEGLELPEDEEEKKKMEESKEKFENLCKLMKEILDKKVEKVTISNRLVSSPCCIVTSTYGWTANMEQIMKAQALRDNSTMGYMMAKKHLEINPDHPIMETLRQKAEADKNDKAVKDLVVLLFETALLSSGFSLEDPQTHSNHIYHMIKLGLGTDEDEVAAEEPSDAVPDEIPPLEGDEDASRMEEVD
UniProt Q9Y2F5: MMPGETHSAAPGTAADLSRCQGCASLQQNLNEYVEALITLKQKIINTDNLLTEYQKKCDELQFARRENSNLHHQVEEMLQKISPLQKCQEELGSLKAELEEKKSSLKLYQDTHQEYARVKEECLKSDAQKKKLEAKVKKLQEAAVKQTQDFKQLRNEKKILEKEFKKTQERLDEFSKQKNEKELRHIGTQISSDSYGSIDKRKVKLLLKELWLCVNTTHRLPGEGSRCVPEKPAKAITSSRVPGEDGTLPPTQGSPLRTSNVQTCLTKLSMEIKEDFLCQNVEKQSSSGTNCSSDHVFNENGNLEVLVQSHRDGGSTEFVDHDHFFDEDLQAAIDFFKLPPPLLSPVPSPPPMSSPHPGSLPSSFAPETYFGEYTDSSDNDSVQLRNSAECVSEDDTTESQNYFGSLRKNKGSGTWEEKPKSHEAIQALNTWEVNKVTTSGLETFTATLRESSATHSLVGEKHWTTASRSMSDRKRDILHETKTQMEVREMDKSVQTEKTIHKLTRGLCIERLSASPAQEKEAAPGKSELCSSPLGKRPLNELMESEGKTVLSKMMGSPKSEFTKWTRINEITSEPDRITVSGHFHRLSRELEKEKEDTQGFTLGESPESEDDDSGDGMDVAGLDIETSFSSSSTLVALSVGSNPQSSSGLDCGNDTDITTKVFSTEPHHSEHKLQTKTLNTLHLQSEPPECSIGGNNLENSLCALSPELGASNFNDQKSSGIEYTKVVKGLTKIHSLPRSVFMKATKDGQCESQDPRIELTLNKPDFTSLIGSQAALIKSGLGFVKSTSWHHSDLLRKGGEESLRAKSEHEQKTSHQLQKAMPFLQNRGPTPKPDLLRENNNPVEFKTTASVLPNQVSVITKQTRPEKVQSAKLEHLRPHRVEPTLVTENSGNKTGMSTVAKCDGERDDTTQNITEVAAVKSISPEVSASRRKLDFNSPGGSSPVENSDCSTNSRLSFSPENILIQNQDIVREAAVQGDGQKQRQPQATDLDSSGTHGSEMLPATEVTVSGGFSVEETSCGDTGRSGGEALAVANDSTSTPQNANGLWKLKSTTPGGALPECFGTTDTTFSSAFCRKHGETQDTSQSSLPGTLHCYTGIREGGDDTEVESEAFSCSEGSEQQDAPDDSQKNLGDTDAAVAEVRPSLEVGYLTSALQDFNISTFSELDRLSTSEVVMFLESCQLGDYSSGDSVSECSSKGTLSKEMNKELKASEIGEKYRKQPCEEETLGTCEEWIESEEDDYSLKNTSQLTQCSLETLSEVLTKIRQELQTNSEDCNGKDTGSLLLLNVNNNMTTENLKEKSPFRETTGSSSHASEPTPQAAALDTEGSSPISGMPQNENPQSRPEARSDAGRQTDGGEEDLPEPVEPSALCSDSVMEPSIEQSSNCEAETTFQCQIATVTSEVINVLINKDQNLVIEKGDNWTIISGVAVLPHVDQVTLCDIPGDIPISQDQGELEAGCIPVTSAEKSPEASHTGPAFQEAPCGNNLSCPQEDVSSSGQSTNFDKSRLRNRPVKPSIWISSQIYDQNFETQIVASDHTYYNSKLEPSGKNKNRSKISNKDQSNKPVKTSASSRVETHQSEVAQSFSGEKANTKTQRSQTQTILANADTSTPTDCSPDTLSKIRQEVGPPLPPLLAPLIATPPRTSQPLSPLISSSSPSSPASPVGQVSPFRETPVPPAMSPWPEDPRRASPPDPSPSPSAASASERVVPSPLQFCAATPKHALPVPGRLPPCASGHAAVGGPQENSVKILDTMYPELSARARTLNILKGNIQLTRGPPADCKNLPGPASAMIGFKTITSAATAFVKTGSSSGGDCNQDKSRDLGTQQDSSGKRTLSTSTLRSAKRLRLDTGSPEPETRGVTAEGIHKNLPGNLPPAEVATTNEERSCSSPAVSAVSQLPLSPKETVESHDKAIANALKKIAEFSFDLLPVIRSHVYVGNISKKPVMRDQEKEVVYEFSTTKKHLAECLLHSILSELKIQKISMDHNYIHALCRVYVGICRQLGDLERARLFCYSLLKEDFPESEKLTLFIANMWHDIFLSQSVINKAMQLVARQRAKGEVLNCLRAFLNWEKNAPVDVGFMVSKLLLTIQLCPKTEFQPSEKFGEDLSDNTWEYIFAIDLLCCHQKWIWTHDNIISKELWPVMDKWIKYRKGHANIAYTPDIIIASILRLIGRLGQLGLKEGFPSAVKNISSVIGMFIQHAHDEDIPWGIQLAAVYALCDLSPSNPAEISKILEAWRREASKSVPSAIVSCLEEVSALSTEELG
UniProt Q9BX68: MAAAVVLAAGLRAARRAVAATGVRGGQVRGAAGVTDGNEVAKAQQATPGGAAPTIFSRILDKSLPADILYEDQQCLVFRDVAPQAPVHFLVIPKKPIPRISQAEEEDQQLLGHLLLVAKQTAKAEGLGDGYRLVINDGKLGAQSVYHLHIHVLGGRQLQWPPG
UniProt O43390: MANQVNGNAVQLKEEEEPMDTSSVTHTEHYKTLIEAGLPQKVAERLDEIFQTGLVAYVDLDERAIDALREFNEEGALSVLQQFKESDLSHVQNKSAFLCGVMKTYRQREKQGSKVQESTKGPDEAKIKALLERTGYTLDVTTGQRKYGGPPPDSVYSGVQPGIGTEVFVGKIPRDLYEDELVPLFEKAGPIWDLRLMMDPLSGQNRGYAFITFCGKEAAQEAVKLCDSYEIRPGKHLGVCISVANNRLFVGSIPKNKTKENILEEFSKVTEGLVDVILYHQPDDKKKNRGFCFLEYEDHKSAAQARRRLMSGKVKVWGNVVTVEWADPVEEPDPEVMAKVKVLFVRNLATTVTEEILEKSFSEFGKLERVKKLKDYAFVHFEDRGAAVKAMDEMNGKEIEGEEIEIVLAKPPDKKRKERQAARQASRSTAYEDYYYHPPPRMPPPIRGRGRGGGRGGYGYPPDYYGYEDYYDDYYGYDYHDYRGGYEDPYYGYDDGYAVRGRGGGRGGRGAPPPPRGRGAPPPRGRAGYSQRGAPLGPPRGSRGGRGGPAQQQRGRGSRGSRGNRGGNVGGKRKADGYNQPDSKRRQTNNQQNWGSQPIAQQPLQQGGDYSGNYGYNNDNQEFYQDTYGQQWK

ibrutinib = compound: C=CC(=O)N1CCC[C@@H](n2nc(-c3ccc(Oc4ccccc4)cc3)c3c(N)ncnc32)C1 [ibrutinib]
In short: as §1

[1] = compound: CC(=O)c1cnc2ccc(-c3cc(Cl)c(O)c(Cl)c3)nc2c1N[C@H]1CC[C@H](CN(C)C)CC1
In short: as §1

[2] = compound: CC(C)(O)CC(=O)NCCn1ccc2ncnc(Nc3ccc(Oc4cccc(C(F)(F)F)c4)c(Cl)c3)c21
In short: as §1

[3] = compound: CC(C)C1=C2N=C(C=C(N2N=C1)NCC3=CC=CC=C3)NCCCCCCN
In short: as §1

pinometostat = compound: CC(C)N(C[C@H]1O[C@@H](n2cnc3c(N)ncnc32)[C@H](O)[C@@H]1O)[C@H]1C[C@@H](CCc2nc3cc(C(C)(C)C)ccc3[nH]2)C1 [pinometostat]
In short: as §1

[4] = compound: CC1=C(C(CC(=O)N1)C2=CC=C(C=C2)C(F)(F)F)C(=O)NC3=C(C=C4C(=C3)C=NN4)F
In short: as §1

[5] = compound: CC1=C(C2=C(C=C1)C(=O)C3=CC=CC=C3N2CCCN)C
In short: as §1

ralimetinib = compound: CC(C)(C)Cn1c(N)nc2ccc(-c3[nH]c(C(C)(C)C)nc3-c3ccc(F)cc3)nc21 [ralimetinib]
In short: as §1

[6] = compound: CC(C)C[C@@H](C=O)NC(=O)[C@H](CC(C)C)NC(=O)[C@H](CC(C)C)NC(=O)OCc1ccccc1
In short: as §1

Target: HNRNPA0 (UniProt Q13151)
- log2 fold change (IRAK-1-4 Inhibitor I): inactive: -0.172
- log2 fold change (ibrutinib): inactive: 0.017
- log2 fold change [1]: inactive: -0.104
- log2 fold change [2]: inactive: -0.081
- log2 fold change [3]: inactive: -0.262
- log2 fold change (pinometostat): inactive: 0.254
- log2 fold change [4]: inactive: -0.171
- log2 fold change [5]: inactive: 0.21

Target: HIGD1A isoform 2 (UniProt Q9Y241)
- log2 fold change (IRAK-1-4 Inhibitor I): inactive: -0.132
- log2 fold change (ibrutinib): inactive: 0.1
- log2 fold change (ralimetinib): inactive: -0.004
- log2 fold change [6]: inactive: 0.231
- log2 fold change (pinometostat): inactive: 0.019
- log2 fold change [4]: inactive: -0.064

Target: HNRNPL (UniProt P14866)
- log2 fold change (IRAK-1-4 Inhibitor I): inactive: -0.198
- log2 fold change (ibrutinib): inactive: 0.039
- log2 fold change [1]: inactive: -0.051
- log2 fold change (ralimetinib): inactive: 0.067
- log2 fold change [2]: inactive: 0.059
- log2 fold change [3]: inactive: -0.268
- log2 fold change [6]: inactive: 0.396
- log2 fold change (pinometostat): inactive: 0.156
- log2 fold change [5]: inactive: -0.152

Target: HTATIP2 isoform 3 (UniProt Q9BUP3)
- log2 fold change (IRAK-1-4 Inhibitor I): inactive: 0.007
- log2 fold change (ibrutinib): inactive: 0.003
- log2 fold change [1]: inactive: -0.034
- log2 fold change (ralimetinib): inactive: 0.077
- log2 fold change [2]: active: 0.651
- log2 fold change [3]: inactive: -0.182
- log2 fold change [6]: inactive: -0.021
- log2 fold change (pinometostat): inactive: 0.006
- log2 fold change [5]: inactive: 0.025

Target: ICMT (UniProt O60725)
- log2 fold change (IRAK-1-4 Inhibitor I): inactive: 0.039
- log2 fold change (ibrutinib): inactive: 0.182
- log2 fold change [1]: inactive: 0.248
- log2 fold change (ralimetinib): inactive: 0.163
- log2 fold change [2]: inactive: -0.032
- log2 fold change [3]: active: -0.472
- log2 fold change [6]: inactive: -0.051
- log2 fold change (pinometostat): inactive: -0.02
- log2 fold change [5]: inactive: 0.147

Target: HSP90AB3P (UniProt Q58FF7)
- log2 fold change (IRAK-1-4 Inhibitor I): inactive: -0.01
- log2 fold change (ibrutinib): inactive: 0.014
- log2 fold change [1]: inactive: 0.076
- log2 fold change (ralimetinib): inactive: 0.057
- log2 fold change [3]: inactive: 0.049
- log2 fold change [6]: inactive: 0.157
- log2 fold change (pinometostat): inactive: -0.001
- log2 fold change [4]: inactive: 0.047

Target: ICE1 (UniProt Q9Y2F5)
- log2 fold change (IRAK-1-4 Inhibitor I): inactive: -0.008
- log2 fold change (ibrutinib): inactive: -0.072
- log2 fold change [2]: inactive: 0.006
- log2 fold change (pinometostat): inactive: 0.071
- log2 fold change [4]: inactive: 0.14

Target: HINT2 (UniProt Q9BX68)
- log2 fold change (IRAK-1-4 Inhibitor I): inactive: -0.09
- log2 fold change (ibrutinib): inactive: 0.008
- log2 fold change [1]: inactive: -0.088
- log2 fold change (ralimetinib): inactive: -0.053
- log2 fold change [3]: inactive: 0.058
- log2 fold change [6]: inactive: -0.028
- log2 fold change (pinometostat): inactive: 0.053
- log2 fold change [4]: inactive: 0.023
- log2 fold change [5]: inactive: 0.244

Target: HSPA8 (UniProt E9PK54)
- log2 fold change (IRAK-1-4 Inhibitor I): inactive: -0.051
- log2 fold change (ibrutinib): inactive: -0.012
- log2 fold change [1]: inactive: 0.015
- log2 fold change (ralimetinib): inactive: -0.161
- log2 fold change [2]: inactive: 0.058
- log2 fold change [3]: inactive: 0.141
- log2 fold change [6]: inactive: 0.074
- log2 fold change (pinometostat): inactive: 0.001
- log2 fold change [5]: inactive: -0.262

Target: HNRNPR (UniProt O43390)
- log2 fold change (IRAK-1-4 Inhibitor I): inactive: -0.312
- log2 fold change (ibrutinib): inactive: -0.04
- log2 fold change [2]: inactive: 0.141
- log2 fold change (pinometostat): inactive: 0.015
- log2 fold change [4]: inactive: -0.088

Target: HSPA8 (UniProt E9PN89)
- log2 fold change (IRAK-1-4 Inhibitor I): inactive: -0.032
- log2 fold change (ibrutinib): inactive: -0.069
- log2 fold change [1]: inactive: -0.145
- log2 fold change [2]: inactive: 0.127
- log2 fold change [3]: inactive: 0.085
- log2 fold change (pinometostat): inactive: -0.004
- log2 fold change [5]: inactive: 0.043

Target: HPCAL1 (UniProt P37235)
- log2 fold change (IRAK-1-4 Inhibitor I): inactive: 0.02
- log2 fold change (ibrutinib): inactive: -0.015
- log2 fold change [1]: inactive: 0.028
- log2 fold change (ralimetinib): inactive: -0.117
- log2 fold change [2]: inactive: -0.018
- log2 fold change [3]: inactive: -0.081
- log2 fold change [6]: inactive: -0.015
- log2 fold change (pinometostat): inactive: -0.003
- log2 fold change [5]: inactive: -0.041
